Data set [1] can be described thus: physchem. The following applies: buffer, pH 6.8.
Data set [2] can be described thus: physchem. The following applies: buffer, pH 7.4.
Data set [3] in a line: in vitro. The following applies: human, Caco-2.
Data set [4] is described as follows: in vitro. As to conditions: human, Caco-2. The source holds these as a separate data set.

In general, thermodynamic solubility refers to solubility found after equilibrating the solid with the medium. In general, logD refers to lipophilicity at a set pH, counting ionised and neutral species. What is called Papp B→A is the apparent permeability from the basolateral to the apical side of a cell layer. Usually Papp A→B stands for how fast a substance crosses the layer from the apical side. High values mean ready permeation, low ones poor permeation.

≈ marks a conversion by molar mass, not a printed value.

The compound `CC(C)c1cc(COc2ccccc2CC(=O)O)cc(-c2ccc3c(c2)[C@H](N)CO3)c1` yielded a solubility (thermodynamic) in “physchem [1]” of 8 µM (≈ 3.34 µg/mL). For the same compound, in the data set “physchem [2]”, the logD was determined as 3.1. Besides, the Papp B→A in the data set “in vitro [3]” turned out to be 17 ×10⁻⁶ cm/s. Moreover, the apparent permeability from apical to basolateral (Papp A→B) in the data set “in vitro [4]” turned out to be 7 ×10⁻⁶ cm/s.
